PubChem BioAssay AID1159594, NIAID | 2016

Assay: 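Genes required for a TNF reporter response to diacyl lipopeptide stimulation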
Cell system: human THP-1 B5 reporter cells, PMA-differentiated into macrophage-like cells
Knock-down reagent: single siRNA against human genes
Duration: 48 to 72 hours after siRNA transfection; ligand exposure 4 hours
Conditions: Pam2CSK4 (TLR2/6 agonist) stimulation for 4 hours before lysis; dose not given
Measured: 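Robust z-score, relative to negative controls, of the firefly/renilla ratio from a TNF promoter reporter, after per-plate median/MAD scaling, mean of replicate screens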
Scale: TNF reporter z-score: higher = stronger TNF promoter reporter activity
Active means: 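Active when the mean z-score across replicates is at or beyond ±1.5 in either direction, matching a depositor grade of 50 or higher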
Calls: active = z-score beyond ±1.5 (either direction); inactive = z-score within ±1.5
In all, the deposit lists 756 reagents; below is a part drawn at random. Over the whole deposit, 130 (17%) are marked active. 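Active calls cover both falls and rises of reporter activity; each row reflects one siRNA, not a gene-level verdict.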 The numbers tell different reagents against one gene apart. The record does not give: the amount of reagent.

gene symbol	reagent	TNF reporter z-score, replicate mean	outcome
ATF2	1	-1.46	inactive
ATF2	2	-0.651	inactive
ATF2	3	-1.01	inactive
ATF2	4	-0.295	inactive
ATF2	5	-0.663	inactive
ATF2	6	-1.21	inactive
NFKB2	1	-0.103	inactive
NFKB2	2	-0.48	inactive
NFKB2	3	1.49	inactive
NFKB2	4	0.0941	inactive
NFKB2	5	-2.52	active
NFKB2	6	-0.0557	inactive
FADD	1	0.993	inactive
FADD	2	-0.368	inactive
FADD	3	-0.814	inactive
FADD	4	-0.798	inactive
FADD	5	0.311	inactive
FADD	6	-1.56	active
PTK2B	1	0.00176	inactive
PTK2B	2	-1.23	inactive
PTK2B	3	-0.858	inactive
PTK2B	4	-1.99	active
PTK2B	5	-1.01	inactive
PTK2B	6	-0.514	inactive
PIK3CA	1	0.285	inactive
PIK3CA	2	-0.51	inactive
PIK3CA	3	-1.14	inactive
PIK3CA	4	-0.0584	inactive
PIK3CA	5	-0.717	inactive
PIK3CA	6	0.464	inactive
BTK	1	0.3	inactive
BTK	2	-0.891	inactive
BTK	3	-0.901	inactive
BTK	4	0.121	inactive
BTK	5	-0.0216	inactive
BTK	6	-0.381	inactive
CD14	1	0.517	inactive
CD14	2	0.156	inactive
CD14	3	0.558	inactive
CD14	4	-0.608	inactive
CD14	5	-1.45	inactive
CD14	6	-0.106	inactive
PIK3R2	1	0.928	inactive
PIK3R2	2	-1.29	inactive
PIK3R2	3	0.0503	inactive
PIK3R2	4	-0.534	inactive
PIK3R2	5	-0.936	inactive
PIK3R2	6	-1.01	inactive
